PubChem BioAssay AID1259254 – NCATS, 2017
The deposit covers about 59,000 reagents; shown is a part drawn at random. About 1,550 of them (2.6%) count as active. 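G2 share is only a proxy for re-replication; each gene was hit by three separate siRNAs, and active genes were retested.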 Not all columns of the deposit are shown. Not stated in the record: the amount of reagent.

- Aim: 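Finding genes that stop cells copying their DNA twice in one cycle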 (primary screen)
- Cell system: human HCT116 colorectal cancer cells
- Reagents: single siRNA against human genes
- Time to read-out: 3 days
- Detection: 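Imaged Hoechst DNA stain sorts each cell into a cycle phase by DNA amount; per plate, G2 fraction set to 0% for non-targeting and 100% for GMNN siRNA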
- Reading the numbers: G2 robust z-score and G2 cells, % of GMNN control: higher = more G2 cells, more excess DNA replication
- Hit rule: 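An siRNA counts as active if its G2 robust z-score lies at least 5 MADs above the screen median; here such calls match roughly 38% of GMNN control or more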

| Gene | PubChem SID | G2 robust z-score | G2 cells, % of GMNN control | activity call |
| --- | --- | --- | --- | --- |
| MDFI | SID160777076 | 0.545 | 6.8 | inactive |
| MDFI | SID160777077 | -0.706 | -2 | inactive |
| MDFI | SID160777078 | 1.64 | 14.5 | inactive |
| GDPD4 | SID160761473 | 0.00441 | 3 | inactive |
| GDPD4 | SID160761474 | 0.189 | 4.3 | inactive |
| GDPD4 | SID160761475 | 0.672 | 7.69 | inactive |
| SNX24 | SID160738888 | -0.8 | -2.66 | inactive |
| SNX24 | SID160738889 | 0.723 | 8.05 | inactive |
| SNX24 | SID160738890 | -1.05 | -4.42 | inactive |
| CRYBG1 | SID160715937 | -0.391 | 0.215 | inactive |
| CRYBG1 | SID160715947 | 0.439 | 6.06 | inactive |
| CRYBG1 | SID160715958 | 0.449 | 6.12 | inactive |
| CDH4 | SID160740418 | -0.542 | -0.849 | inactive |
| CDH4 | SID160740427 | -0.111 | 2.18 | inactive |
| CDH4 | SID160740438 | -0.868 | -3.14 | inactive |
| NPAS4 | SID160762684 | 0.459 | 6.2 | inactive |
| NPAS4 | SID160762685 | 0.355 | 5.47 | inactive |
| NPAS4 | SID160762686 | 2.52 | 20.7 | inactive |
| ASCL3 | SID160745144 | -0.439 | -0.123 | inactive |
| ASCL3 | SID160745145 | -0.212 | 1.47 | inactive |
| ASCL3 | SID160745146 | 7.3 | 54.3 | active |
| BTF3P16 | SID160768876 | -0.479 | -0.403 | inactive |
| BTF3P16 | SID160768877 | 0.188 | 4.29 | inactive |
| BTF3P16 | SID160768878 | -0.263 | 1.12 | inactive |
| INPP5F | SID160732466 | -1.18 | -5.31 | inactive |
| INPP5F | SID160732476 | -0.751 | -2.32 | inactive |
| INPP5F | SID160732486 | -0.521 | -0.697 | inactive |
| HEXD | SID160732958 | -0.599 | -1.25 | inactive |
| HEXD | SID160763112 | -0.744 | -2.27 | inactive |
| HEXD | SID160763113 | -0.471 | -0.346 | inactive |
| TMEM202 | SID160764139 | -0.713 | -2.05 | inactive |
| TMEM202 | SID160764140 | -0.0522 | 2.6 | inactive |
| TMEM202 | SID160764141 | 0.472 | 6.29 | inactive |
| H2AC21 | SID160725047 | 4.38 | 33.8 | inactive |
| H2AC21 | SID160725049 | 1.31 | 12.2 | inactive |
| H2AC21 | SID160733060 | 0.245 | 4.69 | inactive |
| KDM5C | SID160719765 | -1.24 | -5.76 | inactive |
| KDM5C | SID160719766 | 0.494 | 6.44 | inactive |
| KDM5C | SID160719768 | 0.865 | 9.05 | inactive |
| ZNF3 | SID160718984 | 1.59 | 14.1 | inactive |
| ZNF3 | SID160724111 | -0.0555 | 2.58 | inactive |
| ZNF3 | SID160731883 | -0.355 | 0.473 | inactive |
| ADCY2 | SID160713986 | -0.00276 | 2.95 | inactive |
| ADCY2 | SID160713997 | -0.0556 | 2.58 | inactive |
| ADCY2 | SID160714007 | -0.861 | -3.09 | inactive |
| RBM14 | SID160728408 | -0.992 | -4.01 | inactive |
| RBM14 | SID160728409 | -0.212 | 1.47 | inactive |
| RBM14 | SID160728410 | -0.248 | 1.23 | inactive |

2 successive reagents from above, for reference:
| Gene | PubChem SID | G2 robust z-score | G2 cells, % of GMNN control | activity call |
| --- | --- | --- | --- | --- |
| ZNF3 | SID160731883 | -0.355 | 0.473 | inactive |
| ADCY2 | SID160713986 | -0.00276 | 2.95 | inactive |
